The results in this text go back to patent US20220348665A1.

The chains behind the UniProt entries cited, without tags or fusion partners. Residues count along the entry.
UniProt P02769, residues 25-607: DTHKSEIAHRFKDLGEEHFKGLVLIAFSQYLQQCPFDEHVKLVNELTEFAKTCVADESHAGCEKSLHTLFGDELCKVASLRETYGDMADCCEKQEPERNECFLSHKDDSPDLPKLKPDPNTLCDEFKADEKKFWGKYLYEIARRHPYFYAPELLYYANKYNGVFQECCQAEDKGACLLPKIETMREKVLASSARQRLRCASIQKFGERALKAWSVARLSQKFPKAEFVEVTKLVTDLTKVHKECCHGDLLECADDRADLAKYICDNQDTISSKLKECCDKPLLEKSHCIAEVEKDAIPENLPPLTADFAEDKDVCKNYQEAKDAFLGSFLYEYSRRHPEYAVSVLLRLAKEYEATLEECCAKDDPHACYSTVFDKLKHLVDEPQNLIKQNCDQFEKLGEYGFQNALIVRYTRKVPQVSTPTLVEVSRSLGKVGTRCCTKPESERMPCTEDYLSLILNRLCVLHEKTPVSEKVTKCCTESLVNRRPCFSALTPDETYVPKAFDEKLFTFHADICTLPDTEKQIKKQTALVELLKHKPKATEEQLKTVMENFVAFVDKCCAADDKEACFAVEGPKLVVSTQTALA

No constants are given. Whether binding was seen depends on the method and setting. Where a sequence is shown, tags or fusion partners need not be part of it.

This assay addresses BSA (bovine) (UniProt P02769). The assay can be described thus: ELISA on coated protein, 5-fold dilutions from 20 nM, anti-human Fc HRP, Abs. at 450 nm.

B1: 1564 minibody (anti-IGF1R scFv of clone 1564 at the C-terminus of Fc) (Fc fusion, not shown: a dimerising Fc or GST)
chain: QSVLTQPPSASGTPGQRVTISCTGSSSNIGSNDVSWYQQLPGTAPKLLIYANSNRPSGVSDRFSGSKSGTSASLAISGLRSEDEADYYCGAWDDSLNGYVFGCGTKLTVLGGGGSGGGGSGGGGSGGGGSEVQLLESGGGLVQPGGSLRLSCAASGFTFSSYDMSWVRQAPGKCLEWVSAISYDNGNTYYADSVKGRFTISRDNSKNTLYLQMNSLRAEDTAVYYCAKGVLTTLMNWFDYWGQGTLVTVSS
Take B1: the binding entry is given as “no binding (tested: 20 nM)”.
